Test results taken from US12528774B2, “Thiosemicarbazone compounds and uses thereof” (The Regents of the University of California, priority 2019, dated 2026).
At least one read-out could not be matched to a standard name with certainty. Some of these results come from one statement about several compounds together.

System: MIAPACA2 cells
Assay: Proliferation assay (CellTiter-Glo, 72 h) in MIAPACA2 cells
Assay type: cell-based, human
Details: MIAPACA2, 72 h; for +Cu(II) IC90 (nM): DMEM + 10% FBS + 20 μM CuCl2
Method: IC90 values against MIAPACA2 cells was first determined in normal cell culture conditions (DMEM media and 10% FBS). Compounds were separated into three series (4′ primary amines, 4′ secondary amines, 4′ tertiary amines) to reflect the relative degrees of 4′ amine methylation. […] (Refs 41, 42).
HCT compounds are known to be copper chelators. (Ref. 32). To test whether the compounds described herein were similarly potentiated, the IC90 (+Cu IC90) values were determined against MIAPACA2 cells in media supplemented with physiologically relevant levels of copper (DMEM media+10% FBS+20 μM CuCl2). MIAPACA2 cells were treated with the indicated HCT±20 μM Cu(II) for 72 hours, then cell viability was measured with CellTiter-Glo to determine IC90 values.
(§1) Proliferation assay: Cells were plated in 384-well plates (500 cells/well for adherent cell lines in 30 μl volume). Drugs were serially diluted to the desired concentrations and an equivalent volume of DMSO was added to vehicle control. Following 72 h incubation, ATP content was measured using CellTiter-Glo reagent according to manufacturer's instructions (Promega, CellTiter-Glo Luminescent Cell Viability Assay), and analyzed by SpectraMax luminometer (Molecular Devices). IC50 and IC90 values, concentrations required to inhibit proliferation by 50% and 90% respectively compared to DMSO treated cells, were calculated using Prism 6.0 h (Graphpad Software).
as §1, with “assay.” for “assay:”, “Software). The 430-member protein kinase inhibitor library used for the chemical genomics screen was purchased from Selleckchem, Catalog No. L1200.” for “Software).”

[1] = DMEM + 10% FBS, no copper supplementation

SMILES | +Cu(II) IC90 (nM) | IC90 (nM) [1] | IC90 [1]
CN(C)C(=S)N/N=C/c1ncc(F)c2ccccc12 (mixture of isomers) [HCT12, (E)-2-((4-Fluoroisoquinolin-1-yl)methylene)-N,N-dimethylhydrazine-1-carbothioamide and (Z)-2-((4-Fluoroisoquinolin-1-yl)methylene)-N,N-dimethylhydrazine-1-carbothioamide] | sub-nM | low-nM | –
CN(C)C(=S)N/N=C/c1nccc2cc(F)ccc12 (mixture of isomers) [HCT13, (E)-2-((6-Fluoroisoquinolin-1-yl)methylene)-N,N-dimethylhydrazine-1-carbothioamide and (Z)-2-((6-Fluoroisoquinolin-1-yl)methylene)-N,N-dimethylhydrazine-1-carbothioamide] | sub-nM | low-nM | 111 nM
CNc1c(F)ccc2c(/C=N/NC(=S)N(C)C)nccc12 (mixture of isomers) [HCT14, (E)-2-((6-Fluoro-5-(methylamino)isoquinolin-1-yl)methylene)-N,N-dimethylhydrazine-1-carbothioamide and (Z)-2-((6-Fluoro-5-(methylamino)isoquinolin-1-yl)methylene)-N,N-dimethylhydrazine-1-carbothioamide] | sub-nM | low-nM | –
CNc1cccc2c(/C=N/NC(=S)N(C)C)ncc(F)c12 (mixture of isomers) [HCT15, (E)-2-((4-Fluoro-5-(methylamino)isoquinolin-1-yl)methylene)-N,N-dimethylhydrazine-1-carbothioamide and (Z)-2-((4-Fluoro-5-(methylamino)isoquinolin-1-yl)methylene)-N,N-dimethylhydrazine-1-carbothioamide] | sub-nM | low-nM | –
